We go through one molecule from article PMC10492376.

Results are given in words; binding and its absence hold for the method and conditions named. In cells and extracts the contact can be indirect. Some binding calls cover weakened binding; strength is not graded here.

The assay has as its target T1, Selenium-binding protein 1 (human (endogenous in BHT101)) (UniProt Q13228).
T1 sequence: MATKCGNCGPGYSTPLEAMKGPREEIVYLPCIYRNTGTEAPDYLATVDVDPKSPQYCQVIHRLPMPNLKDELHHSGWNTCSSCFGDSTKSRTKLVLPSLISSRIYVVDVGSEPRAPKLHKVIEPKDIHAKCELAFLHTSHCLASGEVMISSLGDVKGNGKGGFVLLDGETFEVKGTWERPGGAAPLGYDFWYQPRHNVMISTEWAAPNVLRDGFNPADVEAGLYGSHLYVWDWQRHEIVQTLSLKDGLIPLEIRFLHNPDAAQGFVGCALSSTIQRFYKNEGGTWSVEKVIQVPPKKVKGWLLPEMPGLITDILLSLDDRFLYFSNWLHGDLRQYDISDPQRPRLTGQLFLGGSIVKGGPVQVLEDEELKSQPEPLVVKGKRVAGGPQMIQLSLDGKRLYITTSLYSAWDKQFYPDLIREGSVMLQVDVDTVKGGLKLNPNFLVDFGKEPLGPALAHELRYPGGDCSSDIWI
Nature of the assay: co-IP; BHT101 lysate (20 mM Tris-HCl pH 8.0, 150 mM NaCl, 1 mM EDTA, 0.5% Nonidet P-40); endogenous SBP1 immunoprecipitated with anti-SBP1 antibody, protein G-agarose beads, 4 °C, 8 h; normal mouse IgG as negative control; washed with 100 mM KCl, 0.05% NP40; blotted for SBP1 or TXN.

B1: thioredoxin (protein, UniProt P10599 1-105)
chain: MVKQIESKTAFQEALDAAGDKLVVVDFSATWCGPCKMIKPFFHSLSEKYSNVIFLEVDVDDCQDVASECEVKCMPTFQFFKKGQKVGEFSGANKEKLEATINELV
Regarding B1, the binding entry is reported as “binds”.
